# The whole screen tested about 31,000 sequences, of which about 1,400 (4.5%) were called active.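 How the source made its calls: active means median seed-adjusted z-score above 1 or below -1; inactive means the rest.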 The list shows a part of the results.
# Assay: Novel Modifiers of Survival Motor Neuron (SMN) Protein: Gene Identification via Genome-wide siRNA Screen;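 further: luminescence tracks full-length SMN protein made from the SMN2 reporter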
# Conditions: HEK293T SMN2-luciferase reporter, siRNA knockdown, 72 h; actives lie on both sides
# Outline: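 Luciferase signal, proportional to full-length SMN made from an SMN2 cDNA reporter in stable HEK293T cells, was read 72 h after siRNA reverse transfection. Values were expressed as MAD scores after non-targeting-control normalization and log10 conversion; seed analysis flagged off-targets.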
row,Sequence,median seed-adjusted z-score
1,GUUCAGUUGCAAAAAGAAATT against NOVA1,inactive: -0.486
2,GGUGAACCGUCAGACAGUATT against BAP1,inactive: -0.374
3,CAAUUCUUAUUGACUCAUATT against IFNA1,inactive: -0.625
4,GGCUGUGGUAGAUAUCUAUTT against TADA2L,inactive: 0.0455
5,GGUAGAGACUAUCCCAACATT against UPP1,inactive: -0.135
6,CGAGGUUUUGAUAAAGAUATT against EFCAB1,inactive: -0.719
7,GGAGAUUCAUUCUAACCAUTT against ADAMTS19,inactive: -0.39
8,GAAGACACCUUCAAACUCATT against KCNIP3,inactive: 0.283
9,CAUUAAACCCGACAACUUCTT against KALRN,inactive: 0.305
10,GGAUCACAAAUAGAAUUCATT against C4BPA,inactive: 0.309
11,CCCAGAGCUUCAAAGUGUATT against HSD17B1,inactive: -0.569
12,GACUGUGAGACUUACCAUATT against MED20,active: -1.66
13,GCCUUGAUCAUCAUGCUAATT against LIN28B,inactive: 0.407
14,GGUUCGAGGUAAACCCUAATT against CTPS2,active: 1.08
15,GGCCGACUGUGAUAAGAUATT against ZNF438,inactive: 0.165
16,GCAUAUUUGUGCUAGUGAUTT against ARL6,inactive: 0.442
17,GUACUGUCAGAAAACCGAATT against DOCK9,inactive: 0.61
18,GGACAGAAAUCCUAGAUUATT against RND1,inactive: -0.393
19,GGUGCUAUAUGUUCCGCAUTT against MLL4,inactive: -0.259
20,AGUUCAUGAUUACAAAGAATT against RABL3,inactive: 0.843
21,CUAAAAAUCUCGAAAACCATT against ZDHHC2,inactive: 0.133
22,CAGAAGGAGUGGAAAGAGATT against NMNAT1,inactive: 0.22
23,GUGGAUCCACGAUACCUCGTT against TIMM23,inactive: 0.899

row,Sequence,median seed-adjusted z-score
1,AGUGAAACUUUAGACUUCATT against KCNV1,inactive: 0.109
2,CGAAAGGAAACCUAACGAATT against HIVEP2,inactive: 0.294
3,AGACAAGAGUGAUUACAAUTT against TLE2,inactive: 0.00566
4,GCAAUCACAUUUAUGCAUATT against CASP6,inactive: 0.765
5,CAACUAUCCCGAUAUGGAATT against KLF12,inactive: -0.0892
6,GAAUCCUGUGGACACCUAUTT against TNXB,inactive: -0.0996
7,GGAGGGUCUUCAUCGCUGATT against POLR2C,active: -2.95
8,CUGUUACAUUUGAUUGGAATT against GFM2,inactive: 0.26
9,GGAUCAACUUGAACGAAUATT against PFTK1,inactive: 0.088
10,CUUCAUGCCUAAAUACCUATT against SLCO1A2,inactive: -0.2
11,ACAUUGAAGUGAAGGGUUATT against BTN3A3,inactive: 0.886
12,CGACAUCAACAUGAACGAUTT against PCSK2,inactive: -0.704
13,GCUGUUGAGUGGAACAAGATT against BZW2,inactive: 0.0649
14,CUCUCUCUGCAACACCUUUTT against SLC39A3,inactive: 0.0298
15,GCCGAGCUGUGAAGAAUGUTT against PAPLN,inactive: -0.186
16,GGAUAUUGCUGUGGACGCATT against CREBBP,inactive: 0
17,CGAAAGCUGCAGACCACCATT against GPR88,inactive: 0.404
18,GGUUACUUUCCGCACCAGATT against UBE2E3,inactive: -0.0585
19,GGUCUGUUGUUUUCCGAAATT against ATP6AP2,inactive: -0.705
20,GAAGAGAUCAAGUAAUUAUTT against TTRAP,inactive: -0.33
21,GCGUCUUGGUGAUUGGUCUTT against FMO4,inactive: -0.359
22,CGAUCGAACAGAAGAAGAATT against ICMT,inactive: -0.0602
23,GGACAUCUAUGUUAUAUGUTT against TRIM65,inactive: -0.599

row,Sequence,median seed-adjusted z-score
1,CCUCAAGGAUUACACGAAATT against TSEN2,inactive: 0
2,GCUAUAAGCCGAUAGUAGATT against 11-Sep,inactive: -0.245
3,AGAUCCUAGAGCUCCUAUATT against CSTF2T,inactive: 0.387
4,UGAUGUAUUUGACCACCAATT against MPP2,inactive: 0.0496
5,GGUGGAAACUGGUAUCCGATT against NAALAD2,inactive: -0.00068
6,CCAGAAACCUGCACGACAATT against OPLAH,inactive: -0.233
7,GUAUCAGGGUGUCCGCAAATT against GZF1,inactive: 0.286
8,AGUGGACCCUGAUAAACCATT against MTHFSD,inactive: -0.298
9,CAACACGUCUGACUUCUCUTT against ZFPL1,inactive: -0.072
10,GCUGGAUUUCGAACACGAATT against KIF27,inactive: 0.412
11,GAAGGUGAAUGUACCCUAATT against RHOG,inactive: -0.354
12,UGGAAUAAGUGGGCUCUGATT against ADM,inactive: 0.65
13,GGAUGAUGUACUUCUCUCATT against MLNR,inactive: -0.038
14,CAAUCUCUCUUAUCCUUGATT against RORC,inactive: -0.243
15,GGCAAUGCGUUGGUUUGUATT against FN1,inactive: -0.312
16,CGUACCAAUCUCAAAAAUATT against LILRB1,inactive: 0.539
17,GCCUGACCCUUGUACACUATT against TSPAN17,inactive: -0.0774
18,CAACGAUAGCACAAAAUGUTT against SLC17A3,inactive: -0.296
19,GACCUUGAAUGUUCAACAUTT against ZNF470,active: -1.26
20,GAAUUUCUAUGACCAAAUUTT against KDELR3,inactive: 0.476
21,GUAUCAAUCUAGAGCACAATT against MYOZ2,inactive: 0.315
22,CAACAAGUGUCACGGCAUATT against ZMYM6,inactive: -0.355

# Some of the entries so far, with bars between the fields:
row | Sequence | median seed-adjusted z-score
5 | GGUAGAGACUAUCCCAACATT against UPP1 | inactive: -0.135
9 | CAUUAAACCCGACAACUUCTT against KALRN | inactive: 0.305
10 | CUUCAUGCCUAAAUACCUATT against SLCO1A2 | inactive: -0.2
